In publication PMC7819943, “Rice protein-binding microarrays: a tool to detect cis-acting elements near promoter regions in rice”:
Some of the results follow.

These sequences were tested against T1, OsSMF1 (Oryza sativa, UniProt Q6ZLB0 1-436) (assay: protein-binding microarray (RPBM); PBS, 2% BSA, 51.3 ng/ul salmon testes DNA, 50 uM zinc acetate, 200 nM TF, 25 C, 1 h; high values mean tight binding). Conditions: protein: recombinant; tags: N-terminal polyhistidine and DsRed monomer fusion (pET32a); chain copies: 2; label: CyDye5-dUTP incorporated in the synthesized complementary strand; 3' TTTTT single-stranded linker to array surface; dsDNA, one strand shown.
T1 sequence: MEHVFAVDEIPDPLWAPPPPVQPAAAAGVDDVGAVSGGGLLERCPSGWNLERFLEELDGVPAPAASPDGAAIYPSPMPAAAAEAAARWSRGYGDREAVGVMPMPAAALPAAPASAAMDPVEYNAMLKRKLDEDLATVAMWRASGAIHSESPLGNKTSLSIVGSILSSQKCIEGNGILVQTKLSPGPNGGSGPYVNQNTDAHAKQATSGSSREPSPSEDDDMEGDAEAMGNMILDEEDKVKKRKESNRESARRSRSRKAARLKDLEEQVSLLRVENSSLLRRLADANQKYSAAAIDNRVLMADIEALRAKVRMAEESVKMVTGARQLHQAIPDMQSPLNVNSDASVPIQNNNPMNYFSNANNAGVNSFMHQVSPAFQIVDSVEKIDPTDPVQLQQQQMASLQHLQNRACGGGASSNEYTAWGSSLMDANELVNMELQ
In short: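 Using Ni–NTA, transcription factors fused N-terminally to polyhistidine and DsRed were purified after expression in E. coli BL21-CodonPlus. These were incubated at 200 nM with a blocked, double-stranded custom Agilent array for 1 h at 25 °C in a buffer containing 50 µM zinc acetate, and the array was washed. The binding signal is per-feature fluorescence intensity (arbitrary units) on an Axon 4000B scanner.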

Row | Sequence | binding signal
1 | GATAAATATAGGAATGTTTATAATACTAAATTAATTTAATCGGAGTCACCTAGTGCAG | 28300 fluorescence intensity (a.u.)
2 | CGTAATAATCTAACAACAGTAAGAAAATGACGTTGCTCTGCGGAGTCACCTAGTGCAG | 3660 fluorescence intensity (a.u.)
3 | GAGCCGTACTCTATCCCATAAAACAAAGTGAACAACACGTCGGAGTCACCTAGTGCAG | 3270 fluorescence intensity (a.u.)
4 | ACTAACCAACTGGTACACGTTCTCAAGGAAGCGCACAACTCGGAGTCACCTAGTGCAG | 4760 fluorescence intensity (a.u.)
5 | TTTTGGCTGACGTGGCGCTTACGTGGTTGGTTTGACTAGACGGAGTCACCTAGTGCAG | 32500 fluorescence intensity (a.u.)
6 | GGGTTGAGCAACATACGTGTTTGTTGGAGAATACCCGTCTCGGAGTCACCTAGTGCAG | 4410 fluorescence intensity (a.u.)
7 | CTTTTAGCATTGTCGGAGAACAGCATCAGCATCATGTCCACGGAGTCACCTAGTGCAG | 4160 fluorescence intensity (a.u.)
8 | ATACAATTTAACATTAAGTTATTATTCACGTGTCACGGGTCGGAGTCACCTAGTGCAG | 4610 fluorescence intensity (a.u.)
9 | TTAAATCTGCCCACTAGACATGCCCTTGAATAGGCCGCCACGGAGTCACCTAGTGCAG | 24900 fluorescence intensity (a.u.)
10 | CAGCCGGCATACGTGTGCGCGGATCTAGCCGTCCAAGCCGCGGAGTCACCTAGTGCAG | 4430 fluorescence intensity (a.u.)
11 | TCAACTCTCAAGCCAAGAATTGTCAGGGACACGTAGCCATCGGAGTCACCTAGTGCAG | 8720 fluorescence intensity (a.u.)
12 | TCTTATATTTGGGCCGGATCGTGCATGCGTGTCAGGGTAACGGAGTCACCTAGTGCAG | 6870 fluorescence intensity (a.u.)
13 | CATCCCACGTGTACACGCGCGGCTCGTCACTCCCCGTGGGCGGAGTCACCTAGTGCAG | 9760 fluorescence intensity (a.u.)
14 | TTTTCAACCTTATATTGTCATTGTCCGTCAACTTGGCTTGCGGAGTCACCTAGTGCAG | 3170 fluorescence intensity (a.u.)
15 | GTCTGCGGTGTGACCAACCCAAAACATGGCTTATGTGACTCGGAGTCACCTAGTGCAG | 16300 fluorescence intensity (a.u.)
16 | GCCAGCGTGACGAGGCAGAAGCCCCATCCTTCGCGCGTGCCGGAGTCACCTAGTGCAG | 8530 fluorescence intensity (a.u.)
17 | CTTTTCCCAAGTCGCGACAGATGGCTTGCGTCTGCGGGTTCGGAGTCACCTAGTGCAG | 4560 fluorescence intensity (a.u.)
18 | GAAAATTTGAGCAAAATTTAGTTGAATTTGAACAAATATTCGGAGTCACCTAGTGCAG | 6670 fluorescence intensity (a.u.)
19 | TCAGTTGCTGCAAAGATTGGGTCAGGCAGGCTTGAGTGTGCGGAGTCACCTAGTGCAG | 3300 fluorescence intensity (a.u.)
20 | AAGAGCCAAGAGCGCGCCCCACGCACGCGAGCCGTGCGGCCGGAGTCACCTAGTGCAG | 23100 fluorescence intensity (a.u.)
21 | CAAGCCGGGCGGGAGCCGTGGCGGCGGCCGGGCGGGCGGGCGGAGTCACCTAGTGCAG | 3340 fluorescence intensity (a.u.)

Reprinted at random: 3 entries already listed
Row | Sequence | binding signal
18 | GAAAATTTGAGCAAAATTTAGTTGAATTTGAACAAATATTCGGAGTCACCTAGTGCAG | 6670 fluorescence intensity (a.u.)
7 | CTTTTAGCATTGTCGGAGAACAGCATCAGCATCATGTCCACGGAGTCACCTAGTGCAG | 4160 fluorescence intensity (a.u.)
12 | TCTTATATTTGGGCCGGATCGTGCATGCGTGTCAGGGTAACGGAGTCACCTAGTGCAG | 6870 fluorescence intensity (a.u.)

More results follow.

Row | Sequence | binding signal
22 | TCGTGGGCAGGATATAGTCCACGTGGCGTCCACCTGCGCGCGGAGTCACCTAGTGCAG | 28600 fluorescence intensity (a.u.)
23 | ACGTGCTGGCGTGGGCGGACGCCGAGAGATTGAAGCGGGTCGGAGTCACCTAGTGCAG | 9860 fluorescence intensity (a.u.)
24 | TTATCTTACAAGCACAAATGATGTGGCATGTCCATATGGCCGGAGTCACCTAGTGCAG | 9380 fluorescence intensity (a.u.)
25 | GCGCGATCCGCGTCTCCGACTCAGTCAGATCTCCGTCCGTCGGAGTCACCTAGTGCAG | 3560 fluorescence intensity (a.u.)
26 | GATCGATATATATTATATATTTGAGTAAATTTCGTAAATTCGGAGTCACCTAGTGCAG | 18600 fluorescence intensity (a.u.)
27 | TTTAATCTGTTATTAGTCATCCATCACAATCCAAGCAAGTCGGAGTCACCTAGTGCAG | 3380 fluorescence intensity (a.u.)
28 | CACCACTCTCTCTCCACCTCATCCATACATGCATGCATGCCGGAGTCACCTAGTGCAG | 7130 fluorescence intensity (a.u.)
29 | CATGGTGAATTGGTGATTTTATAATGATGCTAAGCTTTGACGGAGTCACCTAGTGCAG | 3660 fluorescence intensity (a.u.)
30 | AAGGGGTGGGCGGCAGGGATGCGGTGGGCGATGAGGGAGACGGAGTCACCTAGTGCAG | 3560 fluorescence intensity (a.u.)
31 | CGCGGGTTTGCGTGCCAACGTTTGACTGTTCGTCTTATATCGGAGTCACCTAGTGCAG | 4070 fluorescence intensity (a.u.)
32 | TTCGACCACCACGCATCGCCTGCTCTGCCGCGGCGACGCGCGGAGTCACCTAGTGCAG | 15300 fluorescence intensity (a.u.)
33 | AATTAACCTCATTATCATTTCATTTCACAACTTCTTTTGGCGGAGTCACCTAGTGCAG | 19000 fluorescence intensity (a.u.)
34 | AACAAGGTTTGGGGCCTTAGGGGTGATTGTTCACCGTTGACGGAGTCACCTAGTGCAG | 32200 fluorescence intensity (a.u.)
35 | AGAGTATTAGCACAGTACCAGTGCACTTCACAAGGAGCTTCGGAGTCACCTAGTGCAG | 3520 fluorescence intensity (a.u.)
36 | CCACCTCTATCCCTAGTTGGTGACTAAATTCTGGAGCGGTCGGAGTCACCTAGTGCAG | 3340 fluorescence intensity (a.u.)
37 | GCTAGTAGTAGTGAGCTTGTTGCTTTTGTTGCGTTGCTCCCGGAGTCACCTAGTGCAG | 3210 fluorescence intensity (a.u.)
38 | ACCGTCCTCGCGACCTCGCCTCTTATCATCCCGCGAATAACGGAGTCACCTAGTGCAG | 3380 fluorescence intensity (a.u.)
39 | TCAACACCGCCACGTCAACACCATGTCAGTGAAACCACCCCGGAGTCACCTAGTGCAG | 24200 fluorescence intensity (a.u.)
40 | GGGAGACGGCTTGCCGCCTCTTCTCCTTCCCGCTCCGCGCCGGAGTCACCTAGTGCAG | 12600 fluorescence intensity (a.u.)
41 | AGGGTGGCGAAGCGCGGAGGGCGGCGCGGCGCGCAGCGATCGGAGTCACCTAGTGCAG | 3480 fluorescence intensity (a.u.)
42 | ATGCTTGTCTGTACCCGCTCCTCCTTCCACGCCATCGCGTCGGAGTCACCTAGTGCAG | 3920 fluorescence intensity (a.u.)
